Source: PubChem BioAssay AID624291 (National Center for Advancing Translational Sciences (NCATS), 2012)
Screen size: about 350,000 compounds; about 220 (0.063%) were called active. The inconclusive results got no clear call from the source; some entries with a clear call stand among them for comparison. Calls come from the whole dose curve; as a rule, active = well fitted activation curve with a large enough effect; inconclusive = small, poorly fitted or top-dose-only effect; inactive = no such curve, though single readings can be large or run the other way. A potency beside an inconclusive call is a rough fit, not a confirmed value.

Assay: qHTS for Activators of Integrin-Mediated Alleviation for Muscular Dystrophy; note: nearly all actives have a fitted effect of over 60% in size;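 for activation: 100% = response of the positive control SU9516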
Conditions: alpha7betagal myoblasts, beta-gal FDG fluorescence, 48 h; activation: at 38.3 µM (top of the series)
Summary of the method: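 Alpha7betagal+/- myoblasts (passage 13) were plated 16-24 hr, then exposed to compounds (1:260 dilution of DMSO stock) for 48 hours at 37C. After MPER lysis, β-galactosidase reporter activity was read as FDG fluorescence (ex 480/em 540) after 30 minutes.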
Potency is the fitted concentration of half-maximal effect.

| SMILES | activation | Potency |
| --- | --- | --- |
| Cc1cc([N+](=O)[O-])c2ccccc2[n+]1[O-] | inactive: -65.2% | – |
| CC(=O)OC1(C)CC(C)C(=O)C(C(O)CC2CC(=O)NC(=O)C2)C1 (stereo not drawn) | inconclusive: -63.9% [activator] | – |
| COc1cccc(C(=O)N2CCN(Cc3ccccn3)CC2)c1OC | – | inconclusive: 5.01 µM [activator, partial curve, poor fit] |
| CC1CCCCC1NC(=O)CNC(=S)N1CC2CC(C1)c1cccc(=O)n1C2 (stereo not drawn) | – | inconclusive: 5.01 µM [activator, single point] |
| c1ccc(CCN2CCC(N3CCN(c4ccccc4)CC3)CC2)cc1 | inactive: -6.71% [at 7.66 µM] | – |
| CC(C)Oc1cc(-n2c(=S)[nH]c3ccccc3c2=O)c(Cl)cc1Cl | inactive: 2.9% | – |
| FC(F)(F)c1cccc(NC2=NCCCS2)c1 | – | inconclusive: 28.2 µM [activator, single point] |
| COC(=O)C1=C(c2cc3ccccc3o2)C[C@@H]2CC[C@H]1N2C(=O)NCc1ccccc1 | inactive: 8.46% | – |
| CCC(C)C1NC(=O)C(NC(=O)C(CC(C)C)N(C)C(=O)C2CCCN2C(=O)C(C)O)C(C)OC(=O)C(Cc2ccc(OC)cc2)N(C)C(=O)C2CCCN2C(=O)C(CC(C)C)NC(=O)[C@H](C)C(=O)[C@H](C(C)C)OC(=O)CC1O (stereo partly drawn) | inconclusive: -55.6% [activator] | – |
| CCN(CC)C(=O)c1ccc(NC(=O)CN2CCc3cc(OC)c(OC)cc3C2)cc1 | – | inconclusive: 5.62 µM [activator, partial curve, poor fit] |
| CCC1(CC(C)C)C(=O)NC(=S)NC1=O | inactive: -2.65% | – |
| NNC(=O)c1nc[nH]c1C(=O)Nc1ccc(Cl)cc1C(=O)c1ccccc1 | – | inconclusive: 28.2 µM [activator, single point] |
| CCN1C(=O)C(=C2C=C(C)N(Cc3ccco3)C(C)=C2)C(=O)N(CC)C1=S | – | inconclusive: 6.31 µM [activator, partial curve, poor fit] |
| O=C(CCCCCCCCCCC(=O)NCc1cccnc1)NCc1cccnc1 | inactive: -56% | – |
| O=c1[nH]c(=S)n(Cc2ccc(F)cc2)c(O)c1C=NCc1cccnc1 | – | inconclusive: 1.78 µM [activator, single point] |
| C#C[C@@]1(O)CCC2C3CCC4=C/C(=N/OCC(=O)NC(C(=O)O)C(C)O)CC[C@]4(C)C3CC[C@@]21C (stereo partly drawn) | – | inconclusive: 1.58 µM [activator, partial curve, poor fit] |
| CC(Cc1ccccc1)NC(=O)CCCCC(=O)NC(C)Cc1ccccc1 (stereo not drawn) | – | inconclusive: 0.501 µM [activator, full curve, poor fit] |
| CC1(C)C(C(=O)N2CCN(c3ccc(Cl)cc3)CC2)C1(C)C | – | inconclusive: 0.501 µM [activator, full curve, poor fit] |
| C=C1C(C)C2C(Cc3ccccc3)NC(=O)C23C(OC(C)=O)C=CC(C)(O)CC(C)CC=CC3C1O (stereo not drawn) | inactive: -38.6% | – |
| O=C(COc1ccc(Br)cc1)N1CCN(Cc2ccc3c(c2)OCO3)CC1 | – | inconclusive: 3.55 µM [activator, single point] |
| BrCC1C[n+]2c(SCc3ccccc3)nc3sc4c(c3c2O1)CCCC4 (stereo not drawn) | inactive: -0.176% | – |
| CCOP(=O)(OCC)C(NC(=O)Cc1ccccc1)C(Cl)(Cl)Cl (stereo not drawn) | – | inconclusive: 3.55 µM [activator, single point] |
| Cc1cc(/C=C2/C(=O)NC(=O)N(Cc3ccco3)C2=O)c(C)n1-c1ccccc1 | – | inconclusive: 2.51 µM [activator, full curve, poor fit] |

Structures shown so far containing an aryl methoxy group (3):

| SMILES | activation | Potency |
| --- | --- | --- |
| COc1cccc(C(=O)N2CCN(Cc3ccccn3)CC2)c1OC | – | inconclusive: 5.01 µM [activator, partial curve, poor fit] |
| CCC(C)C1NC(=O)C(NC(=O)C(CC(C)C)N(C)C(=O)C2CCCN2C(=O)C(C)O)C(C)OC(=O)C(Cc2ccc(OC)cc2)N(C)C(=O)C2CCCN2C(=O)C(CC(C)C)NC(=O)[C@H](C)C(=O)[C@H](C(C)C)OC(=O)CC1O (stereo partly drawn) | inconclusive: -55.6% [activator] | – |
| CCN(CC)C(=O)c1ccc(NC(=O)CN2CCc3cc(OC)c(OC)cc3C2)cc1 | – | inconclusive: 5.62 µM [activator, partial curve, poor fit] |

(next part)

| SMILES | activation | Potency |
| --- | --- | --- |
| CCN(C(=O)COC(=O)Cc1ccccc1)c1c(N)n(Cc2ccccc2)c(=O)[nH]c1=O | – | inconclusive: 1.41 µM [activator, single point] |
| Cc1nc2ccc(Cl)cc2c(=O)n1-c1ccc([N+](=O)[O-])cc1 | – | inconclusive: 5.01 µM [activator, single point] |
| CCCCn1c(=O)c(C(=O)NC(C)c2ccccc2)c(O)c2ccccc21 (stereo not drawn) | inactive: 26.7% | – |
| C[C@H](NC(=O)N1C[C@H]2C[C@@H](C1)c1cccc(=O)n1C2)C(=O)Nc1cccc(F)c1 | inconclusive: -13.7% [activator] | – |
| COc1cc([C@@H]2c3cc4c(cc3[C@@H](OC)[C@H]3COC(=O)[C@H]23)OCO4)cc(OC)c1O | inactive: -5.11% | – |
| Cc1cccc(C)c1OCc1n[nH]c(=S)n1N | – | inconclusive: 11.2 µM [activator, single point] |
| COC(=O)[C@@H](NC(=O)c1cc(COc2cncc(Cl)c2)on1)c1ccccc1 | – | inconclusive: 8.91 µM [activator, partial curve, poor fit] |
| Cc1ccc(-c2cc(-c3ccc(C)cc3)[n+](-c3ccccc3)c(-c3ccc(C)cc3)c2)cc1 | inactive: -41.5% | – |
| Clc1ccc2c(c1)C(c1ccccc1Cl)=NCc1nnc(Br)n1-2 | inactive: 8.87% | – |
| COc1cc(/C=C2\C(=O)NC(=O)N(c3ccccc3)C2=O)cc(OC)c1O | – | inconclusive: 5.01 µM [activator, single point] |
| Cc1ncc([N+](=O)[O-])n1CCOc1nonc1N | inactive: -23% | – |
| N#Cc1cn(Cc2ccccc2)c(=O)[nH]c1=O | – | inconclusive: 2.82 µM [activator, partial curve, poor fit] |
| O=c1[nH]c(=S)n(C2CC2)c(O)c1C=NCc1cccnc1 | – | inconclusive: 5.01 µM [activator, single point] |
| O=C1OC(c2ccc(Br)cc2)=N/C1=C\N1CC2CC(C1)c1cccc(=O)n1C2 (stereo not drawn) | – | inconclusive: 5.01 µM [activator, single point] |
| Cn1c(O)c(C=NCCN2CCOCC2)c(=O)[nH]c1=S | – | inconclusive: 5.01 µM [activator, single point] |
| O=C(Cc1ccccc1)OCCN1CCOCC1 | – | inconclusive: 3.55 µM [activator, partial curve, poor fit] |
| COP(=O)(NS(=O)(=O)c1ccccc1)OC | – | inconclusive: 11.2 µM [activator, single point] |
| COc1ccc(N=Cc2c(O)n(-c3ccc(C)cc3)c(=O)[nH]c2=O)cc1 | – | inconclusive: 8.91 µM [activator, single point] |
| CCn1c(O)c(/C=N/NC(=O)c2ccccc2)c(=O)n(CC)c1=S | – | inconclusive: 1.26 µM [activator, partial curve, poor fit] |
| C=CCn1c(O)c(/C(C)=N/N2CCN(C)CC2)c(=O)[nH]c1=O | – | inconclusive: 0.501 µM [activator, full curve, poor fit] |
| CC(=O)NNC(=O)CN1C(=O)CN=C(c2ccccc2)c2cc(Br)ccc21 | – | inconclusive: 5.01 µM [activator, single point] |
| CC(C)(C)n1cc(C(=O)c2ccccc2)cc1-c1ccccc1 | inactive: -3.96% | – |
| Cc1ccc2c(c1)CC1(CN2C)C(=O)NC(=O)N(CCC2=CCCCC2)C1=O (stereo not drawn) | inactive: -10.4% | – |

| SMILES | activation | Potency |
| --- | --- | --- |
| CCC(=O)c1ccc(OCC(=O)N2CCN(CC(=O)Nc3ccccc3C(F)(F)F)CC2)cc1 | – | inconclusive: 0.501 µM [activator, full curve, poor fit] |
| CC(C)N1CC=C(c2c[nH]c3ccccc23)CC1 | inactive: 9.72% | – |
| COc1ccc(C(=O)C2CCCN(CCO)C2)c(C)c1 (stereo not drawn) | – | inconclusive: 28.2 µM [activator, single point] |
| O=c1c2ccccc2nc(-c2ccccc2Cl)n1-c1cccc(O)c1 | – | inconclusive: 28.2 µM [activator, single point] |
| COc1cc(/C=C/c2nc3ccccc3c(=O)n2-c2ccccc2O)ccc1O | inactive: -251% | – |
| CCOC(=O)c1oc2ccc(S(=O)(=O)n3nc(-c4ccc(Cl)cc4)cc3N)cc2c1C | – | inconclusive: 3.16 µM [activator, single point] |
| C/C(=N\N(C)c1ccccc1)c1c(O)[nH]c(=O)[nH]c1=O | – | inconclusive: 5.01 µM [activator, single point] |
| O=C1NC(=O)C(Nc2ccccc2)C(=O)N1 | – | inconclusive: 5.01 µM [activator, single point] |
| N#CC(C#N)=Cc1cccnc1 | inactive: -378% | – |
| O=C1NC2C(=CC(O)C(O)C2O)c2cc3c(c(O)c21)OCO3 (stereo not drawn) | inconclusive: -58.2% [activator] | – |
| CC(=O)OC1CC2(C)C(C(C)=O)CCC2C2CCC3=CC(=O)CCC3(C)C12 (stereo not drawn) | – | inconclusive: 5.01 µM [activator, single point] |
| COc1ccc(C(=O)Nc2cc(Cl)ccc2C(=O)O)cc1 | – | inconclusive: 1.58 µM [activator, full curve, poor fit] |
| Cc1ccc(N2C(=O)NC(=O)/C(=C/c3ccc(OC(=O)c4cccs4)cc3)C2=O)cc1 | inactive: -1.25% | – |
| Cc1nn(Cc2ccccc2)c(C)c1C(=O)NCc1ccccc1F | – | inconclusive: 28.2 µM [activator, single point] |
| O=C(Cc1ccccc1)N1CCN(Cc2cccnc2)CC1 | – | inconclusive: 5.01 µM [activator, single point] |
| CCC1(C)OC(c2ccccc2)=C/C(=C/C=C2C(=O)NC(=O)NC2=O)O1 (stereo not drawn) | inactive: 0% | – |
| CCOC(=O)c1c(C)[nH]c(C(=O)C(C)N2CCCC2)c1C (stereo not drawn) | – | inconclusive: 5.01 µM [activator, single point] |
| O=C1NC(=O)C(CCc2ccncc2)(CCc2ccncc2)C(=O)N1CCc1ccccc1 | inactive: 2.76% | – |
| Cc1ccsc1C(=O)C1CCCN(Cc2cnn(C(C)C)c2)C1 (stereo not drawn) | inactive: -12.3% | – |
| COc1cc(C(=O)N/N=C/c2ccc(OC(=O)N3CCOCC3)cc2)cc(OC)c1OC | – | inconclusive: 28.2 µM [activator, single point] |
| C=CCn1c(O)c(C(CC)=NCCc2c[nH]c3ccccc23)c(=O)[nH]c1=O | inactive: 0.829% | – |
| CC(C)(C)c1ccc(C(=O)NCc2ccco2)cc1 | – | inconclusive: 0.562 µM [activator, partial curve, poor fit] |
